{
  "source": "the supplement of paper PMC8728848",
  "binders": {"B1": {"name": "Gal 12 (Homo sapiens), Q96DT0 (protein)", "chain": "MSQPSGGRAPGTRIYSWSCPTVMSPGEKLDPIPDSFILQPPVFHPVVPYVTTIFGGLHAGKMVMLQGVVPLDAHRFQVDFQCGCSLCPRPDIAFHFNPRFHTTKPHVICNTLHGGRWQREARWPHLALRRGSSFLILFLFGNEEVKVSVNGQHFLHFRYRLPLSHVDTLGIFGDILVEAVGFLNINPFVEGSREYPAGHPFLLMSPRLEVPCSHALPQGLSPGQVIIVRGLVLQEPKHFTVSLRDQAAHAPVTLRASFADRTLAWISRWGQKKLISAPFLFYPQRFFEVLLLFQEGGLKLALNGQGLGATSMNQQALEQLRELRISGSVQLYCVHS"}},
  "assay_in_all_cases": "glycan array binding signal (z-score within array); higher = stronger binding",
  "conditions_in_all_cases": "glycan notation: IUPAC condensed, linker removed",
  "key": {"[1]": {"biological_target": "Fuc(a1-2)Gal(b1-4)GlcNAc(b1-6)GalNAc", "summary_of_the_method": "(§1)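 The binding signal is a Z-score computed within each array and averaged over linkers. Arrays of the same protein sequence at different concentrations or buffers were also averaged together. Data originate from 3228 arrays in the Consortium for Functional Glycomics database, kept only where the protein sequence was available.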"}, "[2]": {"biological_target": "Fuc(a1-2)Gal(b1-4)GlcNAc6S", "summary_of_the_method": "as §1"}, "[3]": {"biological_target": "Fuc(a1-2)Gal(b1-4)[Fuc(a1-3)]GlcNAc", "summary_of_the_method": "as §1"}, "[4]": {"biological_target": "Fuc(a1-2)Gal(b1-4)[Fuc(a1-3)]GlcNAc(b1-2)Man(a1-3)[Fuc(a1-2)Gal(b1-4)[Fuc(a1-3)]GlcNAc(b1-2)Man(a1-6)]Man(b1-4)GlcNAc(b1-4)GlcNAc", "summary_of_the_method": "as §1"}, "[5]": {"biological_target": "Fuc(a1-2)Gal(b1-4)[Fuc(a1-3)]GlcNAc(b1-2)Man(a1-3)[Fuc(a1-2)Gal(b1-4)[Fuc(a1-3)]GlcNAc(b1-2)Man(a1-6)]Man(b1-4)GlcNAc(b1-4)[Fuc(a1-6)]GlcNAc", "summary_of_the_method": "as §1"}, "[6]": {"biological_target": "Fuc(a1-2)Gal(b1-4)[Fuc(a1-3)]GlcNAc(b1-2)[Fuc(a1-2)Gal(b1-4)[Fuc(a1-3)]GlcNAc(b1-4)]Man(a1-3)[Fuc(a1-2)Gal(b1-4)[Fuc(a1-3)]GlcNAc(b1-2)Man(a1-6)]Man(b1-4)GlcNAc(b1-4)GlcNAc", "summary_of_the_method": "as §1"}, "[7]": {"biological_target": "Fuc(a1-2)Gal(b1-4)[Fuc(a1-3)]GlcNAc(b1-3)Gal(b1-4)[Fuc(a1-3)]GlcNAc", "summary_of_the_method": "as §1"}, "[8]": {"biological_target": "Fuc(a1-2)Gal(b1-4)[Fuc(a1-3)]GlcNAc(b1-3)Gal(b1-4)[Fuc(a1-3)]GlcNAc(b1-3)Gal(b1-4)[Fuc(a1-3)]GlcNAc", "summary_of_the_method": "as §1"}, "[9]": {"biological_target": "Fuc(a1-2)Gal(b1-4)[Fuc(a1-3)]GlcNAc(b1-3)GalNAc", "summary_of_the_method": "as §1"}, "[10]": {"biological_target": "Fuc(a1-2)Gal(b1-4)[Fuc(a1-3)]GlcNAc(b1-3)[Neu5Ac(a2-6)Gal(b1-4)GlcNAc(b1-6)]Gal(b1-4)Glc", "summary_of_the_method": "as §1"}, "[11]": {"biological_target": "Fuc(a1-2)Gal3S(b1-4)GlcNAc", "summary_of_the_method": "as §1"}, "[12]": {"biological_target": "Fuc(a1-2)Gal6S(b1-3)GlcNAc", "summary_of_the_method": "as §1"}, "[13]": {"biological_target": "Fuc(a1-2)Gal6S(b1-3)GlcNAc6S", "summary_of_the_method": "as §1"}, "[14]": {"biological_target": "Fuc(a1-2)Gal6S(b1-4)Glc", "summary_of_the_method": "as §1"}, "[15]": {"biological_target": "Fuc(a1-2)Gal6S(b1-4)Glc6S", "summary_of_the_method": "as §1"}, "[16]": {"biological_target": "Fuc(a1-2)Gal6S(b1-4)GlcNAc", "summary_of_the_method": "as §1"}, "[17]": {"biological_target": "Fuc(a1-2)[Gal(a1-3)]Gal", "summary_of_the_method": "as §1"}, "[18]": {"biological_target": "Fuc(a1-2)[Gal(a1-3)]Gal(b1-3)GalNAc", "summary_of_the_method": "as §1"}, "[19]": {"biological_target": "Fuc(a1-2)[Gal(a1-3)]Gal(b1-3)GalNAc(b1-3)Gal(a1-4)Gal(b1-4)Glc", "summary_of_the_method": "as §1"}, "[20]": {"biological_target": "Fuc(a1-2)[Gal(a1-3)]Gal(b1-3)GlcNAc", "summary_of_the_method": "as §1"}, "[21]": {"biological_target": "Fuc(a1-2)[Gal(a1-3)]Gal(b1-3)GlcNAc(b1-2)Man(a1-3)[Fuc(a1-2)[Gal(a1-3)]Gal(b1-3)GlcNAc(b1-2)Man(a1-6)]Man(b1-4)GlcNAc(b1-4)GlcNAc", "summary_of_the_method": "as §1"}, "[22]": {"biological_target": "Fuc(a1-2)[Gal(a1-3)]Gal(b1-3)GlcNAc(b1-2)Man(a1-3)[Fuc(a1-2)[Gal(a1-3)]Gal(b1-3)GlcNAc(b1-2)Man(a1-6)]Man(b1-4)GlcNAc(b1-4)[Fuc(a1-6)]GlcNAc", "summary_of_the_method": "as §1"}, "[23]": {"biological_target": "Fuc(a1-2)[Gal(a1-3)]Gal(b1-3)GlcNAc(b1-3)GalNAc", "summary_of_the_method": "as §1"}, "[24]": {"biological_target": "Fuc(a1-2)[Gal(a1-3)]Gal(b1-3)GlcNAc(b1-6)GalNAc", "summary_of_the_method": "as §1"}, "[25]": {"biological_target": "Fuc(a1-2)[Gal(a1-3)]Gal(b1-4)Glc", "summary_of_the_method": "as §1"}, "[26]": {"biological_target": "Fuc(a1-2)[Gal(a1-3)]Gal(b1-4)GlcNAc", "summary_of_the_method": "as §1"}, "[27]": {"biological_target": "Fuc(a1-2)[Gal(a1-3)]Gal(b1-4)GlcNAc(b1-2)Man", "summary_of_the_method": "as §1"}, "[28]": {"biological_target": "Fuc(a1-2)[Gal(a1-3)]Gal(b1-4)GlcNAc(b1-2)Man(a1-3)[Fuc(a1-2)[Gal(a1-3)]Gal(b1-4)GlcNAc(b1-2)Man(a1-6)]Man(b1-4)GlcNAc(b1-4)GlcNAc", "summary_of_the_method": "as §1"}, "[29]": {"biological_target": "Fuc(a1-2)[Gal(a1-3)]Gal(b1-4)GlcNAc(b1-2)Man(a1-3)[Fuc(a1-2)[Gal(a1-3)]Gal(b1-4)GlcNAc(b1-2)Man(a1-6)]Man(b1-4)GlcNAc(b1-4)[Fuc(a1-6)]GlcNAc", "summary_of_the_method": "as §1"}, "[30]": {"biological_target": "Fuc(a1-2)[Gal(a1-3)]Gal(b1-4)GlcNAc(b1-3)GalNAc", "summary_of_the_method": "as §1"}, "[31]": {"biological_target": "Fuc(a1-2)[Gal(a1-3)]Gal(b1-4)GlcNAc(b1-6)GalNAc", "summary_of_the_method": "as §1"}, "[32]": {"biological_target": "Fuc(a1-2)[Gal(a1-3)]Gal(b1-4)[Fuc(a1-3)]Glc", "summary_of_the_method": "as §1"}, "[33]": {"biological_target": "Fuc(a1-2)[Gal(a1-3)]Gal(b1-4)[Fuc(a1-3)]GlcNAc", "summary_of_the_method": "as §1"}, "[34]": {"biological_target": "Fuc(a1-2)[Gal(a1-3)]Gal(b1-4)[Fuc(a1-3)]GlcNAc(b1-3)GalNAc", "summary_of_the_method": "as §1"}, "[35]": {"biological_target": "Fuc(a1-2)[Gal(a1-4)]Gal(b1-4)GlcNAc", "summary_of_the_method": "as §1"}, "[36]": {"biological_target": "Fuc(a1-2)[GalNAc(a1-3)]Gal", "summary_of_the_method": "as §1"}, "[37]": {"biological_target": "Fuc(a1-2)[GalNAc(a1-3)]Gal(b1-3)GalNAc(a1-3)[Fuc(a1-2)]Gal(b1-4)GlcNAc", "summary_of_the_method": "as §1"}, "[38]": {"biological_target": "Fuc(a1-2)[GalNAc(a1-3)]Gal(b1-3)GalNAc(b1-3)Gal(a1-4)Gal(b1-4)Glc", "summary_of_the_method": "as §1"}},
  "note": "Some of the results follow.",
  "data": [
    {"binder": "B1", "values": [
      {"measurement": "glycan array binding signal (z-score)", "setting": "[1]", "result": 0.055},
      {"measurement": "glycan array binding signal (z-score)", "setting": "[2]", "result": 1.1},
      {"measurement": "glycan array binding signal (z-score)", "setting": "[3]", "result": 0.054},
      {"measurement": "glycan array binding signal (z-score)", "setting": "[4]", "result": 1.49},
      {"measurement": "glycan array binding signal (z-score)", "setting": "[5]", "result": 0.189},
      {"measurement": "glycan array binding signal (z-score)", "setting": "[6]", "result": 3.71},
      {"measurement": "glycan array binding signal (z-score)", "setting": "[7]", "result": -0.629},
      {"measurement": "glycan array binding signal (z-score)", "setting": "[8]", "result": 0.109},
      {"measurement": "glycan array binding signal (z-score)", "setting": "[9]", "result": 5.15},
      {"measurement": "glycan array binding signal (z-score)", "setting": "[10]", "result": 0.008},
      {"measurement": "glycan array binding signal (z-score)", "setting": "[11]", "result": -1.01},
      {"measurement": "glycan array binding signal (z-score)", "setting": "[12]", "result": 0.631},
      {"measurement": "glycan array binding signal (z-score)", "setting": "[13]", "result": 1.29},
      {"measurement": "glycan array binding signal (z-score)", "setting": "[14]", "result": 0.569},
      {"measurement": "glycan array binding signal (z-score)", "setting": "[15]", "result": -0.156},
      {"measurement": "glycan array binding signal (z-score)", "setting": "[16]", "result": -0.472},
      {"measurement": "glycan array binding signal (z-score)", "setting": "[17]", "result": 0.262},
      {"measurement": "glycan array binding signal (z-score)", "setting": "[18]", "result": -0.6},
      {"measurement": "glycan array binding signal (z-score)", "setting": "[19]", "result": -1.32},
      {"measurement": "glycan array binding signal (z-score)", "setting": "[20]", "result": 0.787},
      {"measurement": "glycan array binding signal (z-score)", "setting": "[21]", "result": -0.674},
      {"measurement": "glycan array binding signal (z-score)", "setting": "[22]", "result": -0.117},
      {"measurement": "glycan array binding signal (z-score)", "setting": "[23]", "result": 0.547},
      {"measurement": "glycan array binding signal (z-score)", "setting": "[24]", "result": -0.491},
      {"measurement": "glycan array binding signal (z-score)", "setting": "[25]", "result": 0.096},
      {"measurement": "glycan array binding signal (z-score)", "setting": "[26]", "result": 0.053},
      {"measurement": "glycan array binding signal (z-score)", "setting": "[27]", "result": -0.727},
      {"measurement": "glycan array binding signal (z-score)", "setting": "[28]", "result": 1.02},
      {"measurement": "glycan array binding signal (z-score)", "setting": "[29]", "result": -1.02},
      {"measurement": "glycan array binding signal (z-score)", "setting": "[30]", "result": -0.63},
      {"measurement": "glycan array binding signal (z-score)", "setting": "[31]", "result": -0.845},
      {"measurement": "glycan array binding signal (z-score)", "setting": "[32]", "result": -0.558},
      {"measurement": "glycan array binding signal (z-score)", "setting": "[33]", "result": 0.385},
      {"measurement": "glycan array binding signal (z-score)", "setting": "[34]", "result": 4.56},
      {"measurement": "glycan array binding signal (z-score)", "setting": "[35]", "result": 0.342},
      {"measurement": "glycan array binding signal (z-score)", "setting": "[36]", "result": -0.432},
      {"measurement": "glycan array binding signal (z-score)", "setting": "[37]", "result": -0.304},
      {"measurement": "glycan array binding signal (z-score)", "setting": "[38]", "result": -1.09}
    ]}
  ]
}
